# Assay results taken from the supplement of paper PMC3334620.
# Whole data set: some 33,000 sequences, median “E-score (-0.5 to 0.5)” near -0.0014, cut for the highest 2% near 0.25. Some of the results follow.
# Biological target: T1, Cad1 (UniProt P24813)
# T1 sequence: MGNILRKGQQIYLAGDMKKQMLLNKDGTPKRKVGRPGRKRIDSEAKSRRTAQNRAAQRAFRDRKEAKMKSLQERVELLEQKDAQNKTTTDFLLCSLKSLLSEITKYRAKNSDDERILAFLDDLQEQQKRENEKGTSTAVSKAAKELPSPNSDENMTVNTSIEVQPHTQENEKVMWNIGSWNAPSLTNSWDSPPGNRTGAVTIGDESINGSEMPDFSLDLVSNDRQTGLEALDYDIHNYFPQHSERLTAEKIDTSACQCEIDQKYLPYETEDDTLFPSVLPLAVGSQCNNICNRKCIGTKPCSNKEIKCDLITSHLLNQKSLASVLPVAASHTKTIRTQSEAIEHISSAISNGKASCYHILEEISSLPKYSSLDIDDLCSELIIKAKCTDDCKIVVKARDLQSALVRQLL
# Experiment: PBM E-score (8-mer binding enrichment) (E-score (-0.5 to 0.5)); higher = stronger / more preferred TF binding
# Conditions: protein concentration: 100 nM; construct: GST-full length
# In short: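 Using PURExpress in vitro transcription/translation, GST-tagged yeast transcription factors were made in full-length or DNA-binding-domain form. These were applied at about 100-200 nM to double-stranded universal all-10-mer Agilent arrays, and bound protein was detected with fluorescent anti-GST. Scans were normalised with masliner before the Universal PBM Analysis Suite assigned E-scores to ungapped eight-base words pooled with their reverse complements.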
row,Sequence,PBM E-score
1,ACGTGAGA,-0.0525
2,AAAGGTCC,0.0087
3,ACCTTGGA,-0.0359
4,AGAGAGTG,-0.167
5,GTTCGATA,0.182
6,TAAGTCGA,0.148
7,ATCCGGGC,-0.0019
8,AATCCCCG,-0.12
9,AGGCCCCC,-0.439
10,ACACCTGG,-0.169
11,CGATGGGA,0.00434
12,GTGTCACA,0.252
13,CCAGGGAA,-0.141
14,TGGGTTAA,-0.0973
15,ACGTTACC,-0.196
16,GGTCAATA,-0.00374
17,ATGGTTCG,0.0935
18,GAAGGTCC,-0.183
19,CACTGTGG,-0.0778
20,GCACATCA,0.0324
21,TAGACTAA,-0.0572
22,AGGAGATG,-0.0209

row,Sequence,PBM E-score
1,GCAGCAGC,-0.0716
2,ACGTACAG,-0.136
3,ACGACGCG,0.144
4,GTTCCAGA,0.0539
5,ATTCAATC,0.263
6,CGTTGATA,0.204
7,GGGCCAAA,0.0693
8,ACTGCGTC,-0.142
9,ATCGTCGG,-0.0922
10,ACTCGTTC,-0.0122
11,CTTGCGAA,0.184
12,ACGGAAAT,0.288
13,GAACGCAA,0.017
14,ACCCAGGT,-0.257
15,AGGTTAGG,0.0523
16,AACAAAAA,0.128
17,TAGCACCA,0.0282
18,GCGAGTCA,-0.0262
19,CGCAACTC,0.211
20,CAAGGCTA,-0.0732
21,ACATCCTA,-0.134
22,CTCGCGCC,-0.0612

row,Sequence,PBM E-score
1,AGCGACTA,0.0789
2,AATGCGTA,0.0758
3,GTGCGTGA,0.0224
4,ACTCTTTA,-0.108
5,CCAGCGAC,-0.0563
6,CATGCAAC,0.105
7,AAAAGACC,-0.0654
8,AGTATAGG,-0.0461
9,CTAATAAC,0.161
10,CTTGCATC,-0.129
11,ATGCCGCC,-0.0855
12,ACAAGGCC,0.0001
13,CTTATACA,0.0612
14,AGCTGGAT,0.0235
15,CTGATTTA,0.0612
16,CTCAAATA,-0.0391
17,GGTAAGAC,-0.0844
18,GAGTGTAC,-0.142
19,GTAGCACA,0.0151
20,ACCAATCC,-0.0543
21,AAACTGGT,-0.0556
22,CCTTGAAC,-0.122

row,Sequence,PBM E-score
1,GACACTGA,0.0442
2,GGGGTTAA,-0.158
3,CGGACGGA,-0.00744
4,AGAGACAT,-0.145
5,AGTGACGA,0.045
6,CACGTCCG,-0.0398
7,AGAGTTTA,0.155
8,GATCATCC,0.00224
9,ACAATTAG,-0.144
10,CCCGCACC,-0.0643
11,AACCGGAT,0.132
12,ATGTTCCG,0.0267
13,ATCACGCG,0.187
14,AAGGGCCC,-0.174
15,AAAAGGTG,-0.108
16,ATACTAGG,-0.025
17,CCCAATCG,0.0261
18,ACCAGCGT,-0.0786
19,GGGCAACA,-0.0207
20,CACAAGCA,-0.138
21,GATGATAA,0.195
22,AACTGAGA,0.00938

row,Sequence,PBM E-score
1,ATTCAAGG,-0.13
2,AGGCCCGG,-0.312
3,CCCCCGAG,-0.393
4,AGAAGTTA,-0.0303
5,AGCGTACA,-0.0344
6,ATCATGGG,-0.0515
7,ATTCCCTG,0.117
8,CGCCTGAC,0.149
9,GTCGAGCA,-0.158
10,GATCCGCC,0.121
11,ACTGTGGA,-0.121
12,AGGGAGGA,-0.242
13,AAGCGCAA,0.195
14,AGACCAGA,0.0503
15,GTAGCTAC,0.139
16,AATGGTCC,0.0918
17,CCGCCTAG,-0.136
18,AGCAGTAG,-0.155
19,CGGAACTA,0.0846
20,ATTGCTAA,0.256
21,CACATTAG,-0.103
22,GAATATCC,0.0877
